Results taken from article PMC8805157 (2021).
Numbering of substitutions follows the chain as printed. Names and notes keep the numbering of the source. No constants are given. Whether binding was seen depends on the method and setting. For some assays here: Binding seen in cells or lysates may run through a third protein. Sequences can lack the tags named with a protein. Some binding calls cover weakened binding; strength is not graded here.

T1: BD-Atg9 (S. cerevisiae) (UniProt Q12142)
T1 sequence: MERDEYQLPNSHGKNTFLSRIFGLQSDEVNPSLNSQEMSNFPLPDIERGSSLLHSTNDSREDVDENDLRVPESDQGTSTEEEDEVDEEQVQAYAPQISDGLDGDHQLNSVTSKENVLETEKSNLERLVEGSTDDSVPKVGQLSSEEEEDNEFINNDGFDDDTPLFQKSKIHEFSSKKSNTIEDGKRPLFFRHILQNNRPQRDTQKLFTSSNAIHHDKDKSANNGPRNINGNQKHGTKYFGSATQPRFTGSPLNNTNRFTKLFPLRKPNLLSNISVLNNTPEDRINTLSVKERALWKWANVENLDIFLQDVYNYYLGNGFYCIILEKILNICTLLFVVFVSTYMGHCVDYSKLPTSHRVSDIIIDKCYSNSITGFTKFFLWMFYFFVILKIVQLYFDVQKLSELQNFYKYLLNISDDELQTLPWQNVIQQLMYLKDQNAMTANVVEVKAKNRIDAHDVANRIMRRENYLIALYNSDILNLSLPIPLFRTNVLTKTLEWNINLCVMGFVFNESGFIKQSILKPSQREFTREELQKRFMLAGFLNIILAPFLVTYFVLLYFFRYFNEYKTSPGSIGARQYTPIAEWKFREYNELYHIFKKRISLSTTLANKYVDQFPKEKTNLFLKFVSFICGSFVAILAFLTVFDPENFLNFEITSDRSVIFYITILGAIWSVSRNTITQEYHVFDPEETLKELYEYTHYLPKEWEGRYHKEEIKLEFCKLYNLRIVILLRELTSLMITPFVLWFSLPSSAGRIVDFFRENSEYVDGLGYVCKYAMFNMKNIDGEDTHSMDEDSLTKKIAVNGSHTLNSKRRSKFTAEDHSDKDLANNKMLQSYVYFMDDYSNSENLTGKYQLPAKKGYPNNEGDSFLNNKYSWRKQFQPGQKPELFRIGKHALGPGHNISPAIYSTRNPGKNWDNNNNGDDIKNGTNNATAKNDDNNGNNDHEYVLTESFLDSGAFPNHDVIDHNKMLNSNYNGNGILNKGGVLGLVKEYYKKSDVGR

T2: Atg9-PA (S. cerevisiae) (UniProt Q12142)
T2 sequence: T1 sequence

B1: AD-Atg11 a/d-2 (I548E/Y551E) (protein, UniProt Q12527 1-1178)
chain: MADADEYSTAPTQQEITPLQTTATIINAISGECITTNVDFFVSLDKFKQFIARKWKIPPDQLLILLPYGNKLKPSMFKELLINRSFTLNDFYVYDRRLFSLVSKPTPTNLLTSKDSNPMNSPNSNDLTETLEYLIKNSHISQYQGSDTIMIKPMPSPLEDADVDLSRLNYHSVTSLLTTNLGWLSALEIDVHYFKSLIPDIIAHIKRIFDGLTVCSQYLKLYCFDVESLYNSNVQFLNQLVDNGMTSKWEKCFNDTLSKLTALEGDSLQKFINIESLLENEKSVKILNHSINGKLNKIKREIDENASFRDIITVNIDRLRQMFTPNESKFELEDQMAESFEVLVSEMRTRSRNVLDKEEEEFNSQEFLKSMNVMLEKDKKESVKTLFTISQALYSQIGELIDLKKSLQKHAVAILGNIAFTQMEILGIKRLLLNECNKDLELYKKYEVEFAQVEDLPLIYGLYLIEKYRRLSWFQQILSFISNFNQDLELFKQNELRTRNKWVKNFGSIATVFCEDLLSSSDFKRLNEYHSHTSPPNEDEEDENENSEANERQDLVKVSQAIDNYMTQIKETDVSEPIIDLLSKTLFETKRFHIIYSNFKNNNNNSSNGNSISPEGSIALKSDDVVKGYKTRIKKLESLLHEFQYSDIGHWPQGVLNTHLKPFRGSATSINKKKFLGASVLLEPANISEVNIDSVSQANNHQIQELESNVDDLLHQLQLLKEENNRKSMQISEMGKKISDLEVEKTAYRETLTNLNQELARLTNEEQSHRTEIFTLNASFKKQLNDIISQDNEKIEKLTGDYDDVSKSRERLQMDLDESNKKHEQEVNLLKADIERLGKQIVTSEKSYAETNSSSMEKGEKFETIPLAEDPGRENQISAYTQTLQDRIFDIISTNIFILENIGLLLTFDNNNNIQIRRVKGLKKGTAQSNILDESTQMLDAHDNSLIKSPVFQKLKDEYELIKSVANGSEKDTQQSIFLGNITQLYDNKLYEVAVIRRFKDIETLAKKLTKENKIKRTLLERFQREKVTLRNFQIGDLALFLPTRENVNSVGSMSSSTSSLSSSFSSVDLSTPPPLDAMSIQSSPSVIHSNVINQASISGRDKNKLMRPWAAFTAFEESTRYFLKDEKGLTKGKEWFVGRIVTLEHFVADSPSNNPFRLPKGSVWFQVTAVVVSYQGV
B2: AD-Atg11 I562Q (protein, UniProt Q12527 1-1178)
chain: B1 chain with E548I, E551Y, I562Q
B3: AD-Atg11 Y565E (protein, UniProt Q12527 1-1178)
chain: B1 chain with E548I, E551Y, Y565E
B4: AD-Atg11 Y565Q (protein, UniProt Q12527 1-1178)
chain: B1 chain with E548I, E551Y, Y565Q
B5: AD-Atg11 a/d-4 (I562E/Y565E) (protein, UniProt Q12527 1-1178)
chain: B1 chain with E548I, E551Y, I562E, Y565E
B6: AD-Atg11 (full length, wild type) (protein, UniProt Q12527 1-1178)
chain: B1 chain with E548I, E551Y
B7: AD-Atg11 a/d-3 (L555E/V558E) (protein, UniProt Q12527 1-1178)
chain: B1 chain with E548I, E551Y, L555E, V558E
B8: AD-Atg11 Y565A (protein, UniProt Q12527 1-1178)
chain: B1 chain with E548I, E551Y, Y565A
B9: AD-Atg11 I562A (protein, UniProt Q12527 1-1178)
chain: B1 chain with E548I, E551Y, I562A
B10: GFP-Atg11^Y565E (protein, UniProt Q12527 1-1178)
chain: B1 chain with E548I, E551Y, Y565E
B11: GFP-Atg11ΔCC2 (protein, UniProt Q12527)
chain: MADADEYSTAPTQQEITPLQTTATIINAISGECITTNVDFFVSLDKFKQFIARKWKIPPDQLLILLPYGNKLKPSMFKELLINRSFTLNDFYVYDRRLFSLVSKPTPTNLLTSKDSNPMNSPNSNDLTETLEYLIKNSHISQYQGSDTIMIKPMPSPLEDADVDLSRLNYHSVTSLLTTNLGWLSALEIDVHYFKSLIPDIIAHIKRIFDGLTVCSQYLKLYCFDVESLYNSNVQFLNQLVDNGMTSKWEKCFNDTLSKLTALEGDSLQKFINIESLLENEKSVKILNHSINGKLNKIKREIDENASFRDIITVNIDRLRQMFTPNESKFELEDQMAESFEVLVSEMRTRSRNVLDKEEEEFNSQEFLKSMNVMLEKDKKESVKTLFTISQALYSQIGELIDLKKSLQKHAVAILGNIAFTQMEILGIKRLLLNECNKDLELYKKYEVEFAQVEDLPLIYGLYLIEKYRRLSWFQQILSFISNFNQDLELFKQNELRTRNKWVKNFGSIATVFCEDLLSSSDFKRLNEYHSHTSPPIIDLLSKTLFETKRFHIIYSNFKNNNNNSSNGNSISPEGSIALKSDDVVKGYKTRIKKLESLLHEFQYSDIGHWPQGVLNTHLKPFRGSATSINKKKFLGASVLLEPANISEVNIDSVSQANNHQIQELESNVDDLLHQLQLLKEENNRKSMQISEMGKKISDLEVEKTAYRETLTNLNQELARLTNEEQSHRTEIFTLNASFKKQLNDIISQDNEKIEKLTGDYDDVSKSRERLQMDLDESNKKHEQEVNLLKADIERLGKQIVTSEKSYAETNSSSMEKGEKFETIPLAEDPGRENQISAYTQTLQDRIFDIISTNIFILENIGLLLTFDNNNNIQIRRVKGLKKGTAQSNILDESTQMLDAHDNSLIKSPVFQKLKDEYELIKSVANGSEKDTQQSIFLGNITQLYDNKLYEVAVIRRFKDIETLAKKLTKENKIKRTLLERFQREKVTLRNFQIGDLALFLPTRENVNSVGSMSSSTSSLSSSFSSVDLSTPPPLDAMSIQSSPSVIHSNVINQASISGRDKNKLMRPWAAFTAFEESTRYFLKDEKGLTKGKEWFVGRIVTLEHFVADSPSNNPFRLPKGSVWFQVTAVVVSYQGV

Each binder was assayed against T1, BD-Atg9 (S. cerevisiae) (assay: two-hybrid; BD-Atg9 (bait) with AD-Atg11 and mutants (prey) in the MKO strain; growth on SMD -ura, -leu, -his + 1 mM 3AT plates).

binding | Binder
binds | B1
binds | B2
no binding | B3
no binding | B4
no binding | B5
binds | B6
binds | B7
no binding | B8
binds | B9

What follows are binders tested against T2, Atg9-PA (S. cerevisiae) (assay: co-IP; PA-tagged bait (Atg9-PA or PA-Atg19) precipitated on IgG-Sepharose from spheroplast lysate; proteins overexpressed with a CUP1 promoter in an atg11∆ strain; GFP-Atg11 detected with anti-GFP).

binding | Binder
no binding | B10
no binding | B11
